Assay results from publication PMC11088158.
No constants are given. Whether binding was seen depends on the method and setting. Binding seen in cells or lysates may run through a third protein. Some entries that bind do so weakly or less than the wild type.

Biological target: T1, NLRP4E (mouse (endogenous in oocytes)) (UniProt Q66X19)
T1 sequence: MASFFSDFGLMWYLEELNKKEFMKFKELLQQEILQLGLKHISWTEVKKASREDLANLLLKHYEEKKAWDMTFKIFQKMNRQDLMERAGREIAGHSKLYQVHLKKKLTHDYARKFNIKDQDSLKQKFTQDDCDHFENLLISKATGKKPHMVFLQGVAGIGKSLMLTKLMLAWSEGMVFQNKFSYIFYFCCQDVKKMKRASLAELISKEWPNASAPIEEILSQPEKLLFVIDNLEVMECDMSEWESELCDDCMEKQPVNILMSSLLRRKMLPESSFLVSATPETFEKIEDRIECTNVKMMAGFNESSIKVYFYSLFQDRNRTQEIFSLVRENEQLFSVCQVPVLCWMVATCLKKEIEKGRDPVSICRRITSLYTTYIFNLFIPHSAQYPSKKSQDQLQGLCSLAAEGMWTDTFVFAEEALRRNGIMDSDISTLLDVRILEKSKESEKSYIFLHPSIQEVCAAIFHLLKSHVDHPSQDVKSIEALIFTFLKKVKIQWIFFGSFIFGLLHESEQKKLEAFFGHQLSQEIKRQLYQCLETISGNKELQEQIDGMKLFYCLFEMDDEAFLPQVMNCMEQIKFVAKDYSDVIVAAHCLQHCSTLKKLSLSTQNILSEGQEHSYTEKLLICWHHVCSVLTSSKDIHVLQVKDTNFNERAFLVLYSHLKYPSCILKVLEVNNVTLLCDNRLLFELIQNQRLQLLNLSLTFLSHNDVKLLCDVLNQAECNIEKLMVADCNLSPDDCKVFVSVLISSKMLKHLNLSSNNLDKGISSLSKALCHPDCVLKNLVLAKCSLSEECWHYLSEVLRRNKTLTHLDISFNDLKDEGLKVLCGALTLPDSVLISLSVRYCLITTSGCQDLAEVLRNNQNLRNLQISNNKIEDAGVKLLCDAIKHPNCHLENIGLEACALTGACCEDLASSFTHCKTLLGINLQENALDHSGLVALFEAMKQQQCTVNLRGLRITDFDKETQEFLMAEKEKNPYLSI
Assay: co-IP; antibody bound to protein A/G, incubated overnight at 4 °C with precleaned mouse oocyte lysate in IP buffer, washed three times, western blot; both proteins endogenous

B1: G protein-regulated inducer of neurite outgrowth 1 (GRIN1) (protein, UniProt Q3UNH4 1-932)
chain: MRDCCSSPKAIPAPPRHALDQSLGMDPRHTSSSGAAEGASCSERPAGSLACPSPNCSPLPETPRAHGALTSDNSGTTLFGKPEPMSSAEATPTASEIRNPVFSGKMDGNSLKQADSTSTRKEEAGSLRNEESMLKGKAEPMIYGKGEPGTVGRVDCTASGAENSGSLGKVDMPCSSKVDIVSPGGDNAGSLRKVETISSGKMDPKTENVMHSRRERPGSTGEGDLVSLRENDMKPPDNTDSASTKKTDPEFSGKLTPGSSGKTELVSSVTVAPVTSENVNPVCSGGAGPAAVGNSETLSSVKKDPQLLGKKEAVSSGEGGSVSVRMAETVSARQPEGMFPAKTDSTSSNSTGPSGRADPVSLRNSELVSPVKPERLSSGQAERVSLVKTETLSSGKEDPRSSRRVDHTTVTGNMQTSQKGNPESSGKTDLGSSSSGDTRSLGTWGSLSAAKAEVTEGKGDPQPWKKASLPASEKTDPLASSKAGSASQGKAETVSPGEVDAMTLGKTVPTSSGKTALVSPGKVDLMTSERAEGIPELQASEKGNPVNSTRVDTGATGSTEPKSGVKVITQIPGATSPGKVETPSLQKEQPQLSEKTDPSRKVDPPTTVEPVSLGKADSASPSPRKAESQTSAKTVPQAPDKATSSLRQSDGTPYSSAQPQRDTRSIGSLPEREPSASTSQKDLAAAAAQKSPSAEAAAPPPGPRTRDNFTKAPSWDAGAPPPREDAGTQAGAQACVSVAVSPMSPQDGAGGPAFSFQAAPRAPSPAPRPPSRRDAGLQVSLGAAETRSVATGPMTPQAAAPPAVPPVFPEVRVRPGSVLAAALAPQEATEPVRDVSWDEKGMTWEVYGASMEVEVLGMAIQKHLERQIEEHGRQGAPAPAPPPAVRAGPGRAGSVRTAPAEGAAKRPPGLFRALLQSVRRPRCCSRAGPTAE
With B1 the binding was “binds”.
